Laboratory results published in article doi:10.1101/2020.05.21.107789.
These are yes or no findings as the source states them, for the method shown. Binding seen in cells or lysates may run through a third protein. Some entries that bind do so weakly or less than the wild type. Tags and fused reporters may be left off the sequences shown.

The chains behind the UniProt entries cited, without tags or fusion partners.
UniProt Q15561: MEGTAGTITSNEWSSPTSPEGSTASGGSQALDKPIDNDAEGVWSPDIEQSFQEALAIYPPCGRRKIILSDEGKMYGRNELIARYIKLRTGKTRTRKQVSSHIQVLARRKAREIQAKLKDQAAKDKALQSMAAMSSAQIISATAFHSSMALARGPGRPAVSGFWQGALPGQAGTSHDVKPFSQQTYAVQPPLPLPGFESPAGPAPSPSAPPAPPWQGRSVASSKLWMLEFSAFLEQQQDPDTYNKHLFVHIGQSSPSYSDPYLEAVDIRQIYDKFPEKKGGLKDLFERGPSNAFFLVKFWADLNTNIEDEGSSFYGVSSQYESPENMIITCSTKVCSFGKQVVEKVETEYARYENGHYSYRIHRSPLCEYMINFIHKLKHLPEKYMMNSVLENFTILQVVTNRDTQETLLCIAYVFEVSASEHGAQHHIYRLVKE

Molecular target: N-terminally V5-tagged wt^TEAD4 (full length) (human) (UniProt Q15561)
Experiment: co-IP

B1: (FLAG)3-wt^VGLL2 (full length) (protein, UniProt Q8N8G2-1 1-317)
chain: MSCLDVMYQVYGPPQPYFAAAYTPYHQKLAYYSKMQEAQECNASPSSSGSGSSSFSSQTPASIKEEEGSPEKERPPEAEYINSRCVLFTYFQGDISSVVDEHFSRALSQPSSYSPSCTSSKAPRSSGPWRDCSFPMSQRSFPASFWNSAYQAPVPPPLGSPLATAHSELPFAAADPYSPAALHGHLHQGATEPWHHAHPHHAHPHHPYALGGALGAQAAPYPRPAAVHEVYAPHFDPRYGPLLMPAASGRPARLATAPAPAPGSPPCELSGKGEPAGAAWAGPGGPFASPSGDVAQGLGLSVDSARRYSLCGASLLS
binding: binds
